Laboratory results reported in US20260274985A1 (MYTHIC THERAPEUTICS, published 2026).
Where a chain is given by its changes, count along the chain named. Results are given in words; binding and its absence hold for the method and conditions named. Some results given as binding are weak or reduced against the parent protein; the word gives no strength. Blank lines part the entries; values can stand above or below the binder they belong to.

Chains of the proteins cited; added tags and fusions are not shown. Residues count along the entry.
UniProt P09758, residues 27-274: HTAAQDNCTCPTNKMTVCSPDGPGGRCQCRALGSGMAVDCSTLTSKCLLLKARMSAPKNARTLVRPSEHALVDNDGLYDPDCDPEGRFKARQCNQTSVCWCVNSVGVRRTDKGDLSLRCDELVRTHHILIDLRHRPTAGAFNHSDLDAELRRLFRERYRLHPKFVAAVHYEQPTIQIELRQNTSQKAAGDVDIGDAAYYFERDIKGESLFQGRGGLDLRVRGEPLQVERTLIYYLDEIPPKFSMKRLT

Columns and labels:
[1] = target: Human TROP2 Protein, His Tag (Acro Biosystems) (human) (UniProt P09758); experiment: Octet BLI: IgG supernatant on anti-human Fc sensor, 50 nM TROP2-His at pH 7.4, dissociation at pH 7.4 or 5.4; Octet Binding Result 1=pH dependent
[2] = target: Human TROP2 Protein, His Tag (Acro Biosystems) (human) (UniProt P09758); experiment: BLI (Octet)
[3] = target: Human TROP2 Protein, His Tag (Acro Biosystems) (human) (UniProt P09758); experiment: BLI (Octet) [2/2]

- binding [1]: binds
- binding [2]: binds
B1: MYT13278 (antibody, V domains shown)
VH: QVQLQESGPGLVKPSETLSLTCTVSGGSISSYGVHWIRQPPGKGLEWIGVIWTSGVTDYNSALMGRVTISVDTSKNQFSLKLSSVTAADTAVYYCARDGDYHRYTMDYWGQGTLVTVSS
VL: DIVMTQSPDSLAVSLGERATINCRASKSVSTSGYSYMHWYQQKPGQPPKLLIYLASNLHSGVPDRFSGSGSGTDFTLTISSLQAEDVAVYYCQHSRELPYTFGQGTKLEIK

- binding [3]: binds
- binding [1]: binds
B2: MYT13441 (antibody, V domains shown)
VH: B1 VH with H102D, R103H
VL: B1 VL with H94A

- binding [1]: binds
- binding [2]: binds
B3: MYT13284 (antibody, V domains shown)
VH: B1 VH with H102D, R103H
VL: B1 VL with H59E, S60H

- binding [1]: binds
- binding [2]: binds
B4: MYT13446 (antibody, V domains shown)
VH: B1 VH with H102D, R103H
VL: B1 VL with T101H

- binding [1]: binds
- binding [2]: binds
B5: MYT13303 (antibody, V domains shown)
VH: B1 VH
VL: B1 VL with H59E, T101H

- binding [1]: binds
- binding [2]: binds
B6: MYT13293 (antibody, V domains shown)
VH: B1 VH
VL: B1 VL with H59E, H94A

- binding [1]: binds
- binding [2]: binds
B7: MYT13294 (antibody, V domains shown)
VH: B1 VH with H102D, R103H
VL: B1 VL with H59E, H94A

- binding [1]: binds
- binding [2]: binds
B8: MYT13309 (antibody, V domains shown)
VH: B1 VH with H102D, R103H
VL: B1 VL with H94A
